From article PMC10743696 come the findings set out here.

By UniProt entry, the sequences of proteins in these tests, tags left out. Residues count along the entry.
UniProt P13595, residues 20-1115: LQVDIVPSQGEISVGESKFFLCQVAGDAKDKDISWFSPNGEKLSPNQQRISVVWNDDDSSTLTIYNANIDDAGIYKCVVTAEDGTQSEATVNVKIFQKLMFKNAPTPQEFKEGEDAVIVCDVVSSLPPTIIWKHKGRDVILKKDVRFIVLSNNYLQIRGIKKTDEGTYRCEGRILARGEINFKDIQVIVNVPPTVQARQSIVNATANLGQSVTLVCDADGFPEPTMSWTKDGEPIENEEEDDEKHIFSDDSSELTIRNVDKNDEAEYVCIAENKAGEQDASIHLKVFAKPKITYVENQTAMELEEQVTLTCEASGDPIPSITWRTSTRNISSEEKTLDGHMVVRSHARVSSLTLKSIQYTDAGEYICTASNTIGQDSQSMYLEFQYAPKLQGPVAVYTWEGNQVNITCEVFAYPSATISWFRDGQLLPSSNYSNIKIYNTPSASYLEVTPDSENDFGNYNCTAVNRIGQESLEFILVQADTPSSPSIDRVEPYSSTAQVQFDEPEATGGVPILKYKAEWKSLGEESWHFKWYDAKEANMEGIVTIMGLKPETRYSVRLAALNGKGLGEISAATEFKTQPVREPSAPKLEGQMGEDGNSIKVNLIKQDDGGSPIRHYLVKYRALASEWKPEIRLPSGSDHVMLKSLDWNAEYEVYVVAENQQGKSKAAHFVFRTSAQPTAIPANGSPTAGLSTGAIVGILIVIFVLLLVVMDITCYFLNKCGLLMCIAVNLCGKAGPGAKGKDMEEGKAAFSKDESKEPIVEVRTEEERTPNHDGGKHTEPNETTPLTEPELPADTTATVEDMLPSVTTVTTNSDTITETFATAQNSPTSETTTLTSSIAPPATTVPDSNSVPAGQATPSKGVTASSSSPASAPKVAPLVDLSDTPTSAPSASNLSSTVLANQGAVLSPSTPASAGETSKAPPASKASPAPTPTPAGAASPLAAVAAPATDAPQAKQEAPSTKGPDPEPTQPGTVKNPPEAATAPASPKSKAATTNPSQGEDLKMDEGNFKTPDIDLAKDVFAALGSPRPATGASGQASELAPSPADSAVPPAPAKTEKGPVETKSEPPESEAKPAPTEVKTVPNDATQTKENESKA

Results are given in words; binding and its absence hold for the method and conditions named. Binding seen in cells or lysates may run through a third protein. Some binding calls cover weakened binding; strength is not graded here.

This assay concerns the target PrP^C of differentiated C2C12 cultures (mouse (endogenous in C2C12)) (UniProt P04925). The experiment in a line: cross-linking.

Turning to “neural cell adhesion molecule (NCAM) (from UniProt P13595 20-1115)”, the binding entry was “binds”.
